Amino acid sequences for entries named in this document (tags omitted). A change or cut given only in a name is not applied to a line headed by its entry.
UniProt Q6NZM9: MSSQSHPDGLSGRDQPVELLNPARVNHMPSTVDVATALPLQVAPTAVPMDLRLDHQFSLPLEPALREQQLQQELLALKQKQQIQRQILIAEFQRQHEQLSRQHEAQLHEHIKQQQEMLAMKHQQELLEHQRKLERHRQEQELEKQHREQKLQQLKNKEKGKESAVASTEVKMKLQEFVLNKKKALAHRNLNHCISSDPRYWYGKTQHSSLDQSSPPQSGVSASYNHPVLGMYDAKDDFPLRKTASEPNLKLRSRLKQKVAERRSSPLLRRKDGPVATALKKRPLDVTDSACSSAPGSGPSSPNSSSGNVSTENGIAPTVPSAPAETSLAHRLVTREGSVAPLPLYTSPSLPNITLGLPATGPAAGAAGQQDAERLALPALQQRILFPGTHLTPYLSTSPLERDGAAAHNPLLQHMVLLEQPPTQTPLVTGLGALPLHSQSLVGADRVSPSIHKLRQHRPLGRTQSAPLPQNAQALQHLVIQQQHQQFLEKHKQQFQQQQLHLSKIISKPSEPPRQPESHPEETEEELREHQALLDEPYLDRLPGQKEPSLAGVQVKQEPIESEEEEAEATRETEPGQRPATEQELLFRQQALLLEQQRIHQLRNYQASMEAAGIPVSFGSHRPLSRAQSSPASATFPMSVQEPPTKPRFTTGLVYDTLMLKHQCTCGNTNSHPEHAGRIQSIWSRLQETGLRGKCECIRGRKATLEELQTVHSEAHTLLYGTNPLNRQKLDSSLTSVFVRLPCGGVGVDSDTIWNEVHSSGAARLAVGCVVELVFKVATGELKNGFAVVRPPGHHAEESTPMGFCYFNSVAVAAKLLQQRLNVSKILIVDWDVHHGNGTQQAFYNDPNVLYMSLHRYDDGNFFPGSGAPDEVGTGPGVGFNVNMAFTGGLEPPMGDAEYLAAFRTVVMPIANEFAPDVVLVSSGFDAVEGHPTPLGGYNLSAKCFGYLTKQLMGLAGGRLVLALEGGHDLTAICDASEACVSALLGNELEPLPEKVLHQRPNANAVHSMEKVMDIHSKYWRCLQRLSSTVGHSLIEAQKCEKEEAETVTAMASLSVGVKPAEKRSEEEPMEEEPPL
UniProt P42859: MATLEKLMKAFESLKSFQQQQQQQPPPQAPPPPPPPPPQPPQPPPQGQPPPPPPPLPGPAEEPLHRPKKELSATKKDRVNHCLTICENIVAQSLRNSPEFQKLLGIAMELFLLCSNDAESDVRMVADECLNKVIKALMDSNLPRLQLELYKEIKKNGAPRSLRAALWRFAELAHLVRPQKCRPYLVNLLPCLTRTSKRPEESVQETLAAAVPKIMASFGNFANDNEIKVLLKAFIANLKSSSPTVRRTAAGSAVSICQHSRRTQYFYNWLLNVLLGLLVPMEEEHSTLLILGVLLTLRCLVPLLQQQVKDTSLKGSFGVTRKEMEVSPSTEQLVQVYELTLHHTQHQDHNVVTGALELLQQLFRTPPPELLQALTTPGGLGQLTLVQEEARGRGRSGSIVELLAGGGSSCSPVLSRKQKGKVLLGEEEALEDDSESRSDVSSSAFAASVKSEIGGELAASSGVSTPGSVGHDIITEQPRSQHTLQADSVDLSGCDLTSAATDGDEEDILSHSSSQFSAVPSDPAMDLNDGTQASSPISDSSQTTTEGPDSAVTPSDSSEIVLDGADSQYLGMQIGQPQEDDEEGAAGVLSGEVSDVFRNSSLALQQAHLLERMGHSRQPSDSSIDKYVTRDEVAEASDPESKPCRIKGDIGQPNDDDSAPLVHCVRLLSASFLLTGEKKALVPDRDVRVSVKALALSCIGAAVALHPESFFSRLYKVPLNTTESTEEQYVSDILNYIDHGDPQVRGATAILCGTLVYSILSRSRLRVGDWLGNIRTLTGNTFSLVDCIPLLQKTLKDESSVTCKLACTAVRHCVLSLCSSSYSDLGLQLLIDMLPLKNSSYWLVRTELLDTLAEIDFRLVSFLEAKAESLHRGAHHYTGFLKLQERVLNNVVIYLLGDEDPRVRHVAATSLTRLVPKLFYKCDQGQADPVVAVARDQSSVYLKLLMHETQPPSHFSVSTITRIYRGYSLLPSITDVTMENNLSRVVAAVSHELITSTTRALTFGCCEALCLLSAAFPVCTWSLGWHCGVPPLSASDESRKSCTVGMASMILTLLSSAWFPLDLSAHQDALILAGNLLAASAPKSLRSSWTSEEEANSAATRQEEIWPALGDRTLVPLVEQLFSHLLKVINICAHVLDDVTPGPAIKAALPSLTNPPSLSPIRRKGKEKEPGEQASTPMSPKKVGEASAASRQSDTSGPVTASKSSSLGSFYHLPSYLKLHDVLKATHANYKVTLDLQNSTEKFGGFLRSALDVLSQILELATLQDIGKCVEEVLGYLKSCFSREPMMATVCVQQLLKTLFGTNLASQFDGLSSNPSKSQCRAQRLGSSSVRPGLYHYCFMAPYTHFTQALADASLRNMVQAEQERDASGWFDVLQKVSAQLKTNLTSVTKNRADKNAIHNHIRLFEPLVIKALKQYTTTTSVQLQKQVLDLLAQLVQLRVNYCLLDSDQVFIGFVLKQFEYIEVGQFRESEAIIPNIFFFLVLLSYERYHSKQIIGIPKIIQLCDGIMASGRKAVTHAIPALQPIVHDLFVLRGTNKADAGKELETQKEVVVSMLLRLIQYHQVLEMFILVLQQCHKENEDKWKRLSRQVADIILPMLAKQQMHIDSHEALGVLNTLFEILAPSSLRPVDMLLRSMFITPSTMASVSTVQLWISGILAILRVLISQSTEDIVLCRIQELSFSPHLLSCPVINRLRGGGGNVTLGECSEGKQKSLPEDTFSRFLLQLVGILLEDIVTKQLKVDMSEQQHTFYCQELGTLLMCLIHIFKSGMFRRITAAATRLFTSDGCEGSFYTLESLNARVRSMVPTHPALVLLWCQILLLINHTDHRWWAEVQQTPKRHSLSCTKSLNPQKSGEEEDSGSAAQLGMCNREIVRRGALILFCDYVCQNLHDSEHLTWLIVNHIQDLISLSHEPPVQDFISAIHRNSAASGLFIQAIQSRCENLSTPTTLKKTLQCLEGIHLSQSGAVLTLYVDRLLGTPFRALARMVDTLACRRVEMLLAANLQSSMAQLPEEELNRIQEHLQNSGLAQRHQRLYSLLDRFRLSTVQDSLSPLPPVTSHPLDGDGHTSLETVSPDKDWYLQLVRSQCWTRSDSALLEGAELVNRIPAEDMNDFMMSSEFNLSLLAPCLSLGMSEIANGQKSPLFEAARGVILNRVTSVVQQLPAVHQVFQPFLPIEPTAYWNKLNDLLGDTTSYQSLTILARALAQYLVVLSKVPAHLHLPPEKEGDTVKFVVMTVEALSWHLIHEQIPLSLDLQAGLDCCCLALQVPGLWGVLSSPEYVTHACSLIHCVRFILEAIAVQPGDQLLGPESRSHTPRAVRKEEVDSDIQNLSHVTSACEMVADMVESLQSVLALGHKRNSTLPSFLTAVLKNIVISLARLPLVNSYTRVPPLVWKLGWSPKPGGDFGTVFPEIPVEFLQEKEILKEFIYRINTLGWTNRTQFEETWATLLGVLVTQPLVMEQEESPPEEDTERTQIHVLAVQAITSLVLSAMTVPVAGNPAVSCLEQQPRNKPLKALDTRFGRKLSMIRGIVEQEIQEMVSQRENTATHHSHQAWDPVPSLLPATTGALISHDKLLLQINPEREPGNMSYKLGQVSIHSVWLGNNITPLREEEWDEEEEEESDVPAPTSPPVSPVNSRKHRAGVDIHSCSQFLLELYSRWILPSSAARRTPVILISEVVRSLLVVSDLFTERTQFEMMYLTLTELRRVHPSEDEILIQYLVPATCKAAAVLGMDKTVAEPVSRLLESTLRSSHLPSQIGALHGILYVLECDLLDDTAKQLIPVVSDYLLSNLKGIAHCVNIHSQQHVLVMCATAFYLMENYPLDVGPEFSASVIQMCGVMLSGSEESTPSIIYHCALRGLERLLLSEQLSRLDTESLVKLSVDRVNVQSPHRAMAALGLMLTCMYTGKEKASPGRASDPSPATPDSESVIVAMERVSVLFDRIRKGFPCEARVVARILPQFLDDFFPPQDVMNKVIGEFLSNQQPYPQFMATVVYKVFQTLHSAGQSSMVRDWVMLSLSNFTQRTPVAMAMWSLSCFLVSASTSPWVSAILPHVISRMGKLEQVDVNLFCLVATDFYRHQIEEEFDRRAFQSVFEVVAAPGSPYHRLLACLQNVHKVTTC

According to PMC3841096:

Biological target: HDAC4 (endogenous, mouse brain) (mouse (endogenous in mouse brain)) (UniProt Q6NZM9)
Assay: co-IP; whole brain lysates of 8-wk-old mice in HEPES buffer, protein-G Dynabeads overnight at 4°C; immunoprecipitation with HDAC4 (DM-15 or H-92) or HDAC5 (ab56929) antibodies, HTT detected with MAB2166 or MW1

binding: binds
Substance: mutant HTT of HdhQ150 knock-in mice (from UniProt P42859)

Results are given in words; binding and its absence hold for the method and conditions named. Binding seen in cells or lysates may run through a third protein. Binding calls can cover weak binding; strength is not graded here.
